Assay [1] has as its target BRG1, the ATPase subunit of the mSWI/SNF complex (untagged, wild-type mES cells) (mouse (endogenous in mES cells)) (UniProt Q3TKT4). Put plainly: co-IP; BRG1 immunoprecipitation from nuclear lysates of WT or Brg1-KI mES cells; antibody coupled to Dynabeads, 3 h at 4 °C; wash buffer 50 mM Tris pH 8.0, 150 mM NaCl, 1 mM EDTA, 10% glycerol, 0.5% Triton X-100; western blot.
Assay [2] has as its target BRG1 with FKBP12-F36V-HA knock-in at the 3' end of Brg1 (Brg1-knock-in mES cells) (mouse (endogenous in mES cells)) (UniProt Q3TKT4). Described as above.

Amino acid sequences for entries named in this document (tags omitted). A change or cut given only in a name is not applied to a line headed by its entry.
UniProt Q3TKT4: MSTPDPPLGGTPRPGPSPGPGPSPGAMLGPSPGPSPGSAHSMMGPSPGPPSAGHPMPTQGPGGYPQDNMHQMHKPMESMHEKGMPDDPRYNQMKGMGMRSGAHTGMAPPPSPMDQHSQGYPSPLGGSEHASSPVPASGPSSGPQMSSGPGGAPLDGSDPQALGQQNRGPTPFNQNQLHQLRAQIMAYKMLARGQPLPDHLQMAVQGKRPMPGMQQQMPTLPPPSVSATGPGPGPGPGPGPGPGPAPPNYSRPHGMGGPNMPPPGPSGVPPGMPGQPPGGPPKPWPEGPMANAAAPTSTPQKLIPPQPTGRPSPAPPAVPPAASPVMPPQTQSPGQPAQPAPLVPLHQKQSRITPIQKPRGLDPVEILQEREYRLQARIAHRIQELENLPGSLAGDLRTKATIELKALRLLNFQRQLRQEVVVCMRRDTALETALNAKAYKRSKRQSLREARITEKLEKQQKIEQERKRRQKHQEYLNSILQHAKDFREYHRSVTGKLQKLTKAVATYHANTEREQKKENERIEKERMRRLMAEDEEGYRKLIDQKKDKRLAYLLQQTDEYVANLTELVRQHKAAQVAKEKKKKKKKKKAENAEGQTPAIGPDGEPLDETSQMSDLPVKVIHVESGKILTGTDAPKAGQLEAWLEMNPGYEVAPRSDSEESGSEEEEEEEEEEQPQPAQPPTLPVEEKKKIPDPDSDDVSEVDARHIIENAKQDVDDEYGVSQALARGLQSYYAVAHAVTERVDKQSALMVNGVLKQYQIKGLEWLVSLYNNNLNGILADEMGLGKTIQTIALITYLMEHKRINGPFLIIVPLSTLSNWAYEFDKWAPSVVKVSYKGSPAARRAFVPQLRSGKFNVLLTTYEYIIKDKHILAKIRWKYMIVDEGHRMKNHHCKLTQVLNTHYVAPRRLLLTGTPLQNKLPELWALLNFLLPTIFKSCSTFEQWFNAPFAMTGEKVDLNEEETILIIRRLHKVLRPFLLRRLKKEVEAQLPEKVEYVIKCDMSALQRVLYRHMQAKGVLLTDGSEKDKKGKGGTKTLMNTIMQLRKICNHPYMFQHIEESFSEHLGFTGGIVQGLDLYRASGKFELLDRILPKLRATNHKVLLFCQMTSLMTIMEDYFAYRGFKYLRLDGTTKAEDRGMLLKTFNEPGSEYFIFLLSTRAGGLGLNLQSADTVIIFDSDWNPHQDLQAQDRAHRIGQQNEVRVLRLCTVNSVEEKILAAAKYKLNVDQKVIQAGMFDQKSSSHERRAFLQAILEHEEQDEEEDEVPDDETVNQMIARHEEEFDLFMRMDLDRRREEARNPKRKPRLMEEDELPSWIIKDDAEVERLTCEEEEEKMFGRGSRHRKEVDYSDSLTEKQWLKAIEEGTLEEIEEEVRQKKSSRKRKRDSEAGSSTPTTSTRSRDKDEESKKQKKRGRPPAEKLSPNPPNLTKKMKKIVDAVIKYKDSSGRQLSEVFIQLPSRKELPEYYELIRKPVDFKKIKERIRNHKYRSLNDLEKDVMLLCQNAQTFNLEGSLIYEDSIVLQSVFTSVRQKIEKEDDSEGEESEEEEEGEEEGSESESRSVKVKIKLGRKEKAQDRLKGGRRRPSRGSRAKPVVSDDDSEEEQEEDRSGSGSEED
UniProt Q8BSQ9: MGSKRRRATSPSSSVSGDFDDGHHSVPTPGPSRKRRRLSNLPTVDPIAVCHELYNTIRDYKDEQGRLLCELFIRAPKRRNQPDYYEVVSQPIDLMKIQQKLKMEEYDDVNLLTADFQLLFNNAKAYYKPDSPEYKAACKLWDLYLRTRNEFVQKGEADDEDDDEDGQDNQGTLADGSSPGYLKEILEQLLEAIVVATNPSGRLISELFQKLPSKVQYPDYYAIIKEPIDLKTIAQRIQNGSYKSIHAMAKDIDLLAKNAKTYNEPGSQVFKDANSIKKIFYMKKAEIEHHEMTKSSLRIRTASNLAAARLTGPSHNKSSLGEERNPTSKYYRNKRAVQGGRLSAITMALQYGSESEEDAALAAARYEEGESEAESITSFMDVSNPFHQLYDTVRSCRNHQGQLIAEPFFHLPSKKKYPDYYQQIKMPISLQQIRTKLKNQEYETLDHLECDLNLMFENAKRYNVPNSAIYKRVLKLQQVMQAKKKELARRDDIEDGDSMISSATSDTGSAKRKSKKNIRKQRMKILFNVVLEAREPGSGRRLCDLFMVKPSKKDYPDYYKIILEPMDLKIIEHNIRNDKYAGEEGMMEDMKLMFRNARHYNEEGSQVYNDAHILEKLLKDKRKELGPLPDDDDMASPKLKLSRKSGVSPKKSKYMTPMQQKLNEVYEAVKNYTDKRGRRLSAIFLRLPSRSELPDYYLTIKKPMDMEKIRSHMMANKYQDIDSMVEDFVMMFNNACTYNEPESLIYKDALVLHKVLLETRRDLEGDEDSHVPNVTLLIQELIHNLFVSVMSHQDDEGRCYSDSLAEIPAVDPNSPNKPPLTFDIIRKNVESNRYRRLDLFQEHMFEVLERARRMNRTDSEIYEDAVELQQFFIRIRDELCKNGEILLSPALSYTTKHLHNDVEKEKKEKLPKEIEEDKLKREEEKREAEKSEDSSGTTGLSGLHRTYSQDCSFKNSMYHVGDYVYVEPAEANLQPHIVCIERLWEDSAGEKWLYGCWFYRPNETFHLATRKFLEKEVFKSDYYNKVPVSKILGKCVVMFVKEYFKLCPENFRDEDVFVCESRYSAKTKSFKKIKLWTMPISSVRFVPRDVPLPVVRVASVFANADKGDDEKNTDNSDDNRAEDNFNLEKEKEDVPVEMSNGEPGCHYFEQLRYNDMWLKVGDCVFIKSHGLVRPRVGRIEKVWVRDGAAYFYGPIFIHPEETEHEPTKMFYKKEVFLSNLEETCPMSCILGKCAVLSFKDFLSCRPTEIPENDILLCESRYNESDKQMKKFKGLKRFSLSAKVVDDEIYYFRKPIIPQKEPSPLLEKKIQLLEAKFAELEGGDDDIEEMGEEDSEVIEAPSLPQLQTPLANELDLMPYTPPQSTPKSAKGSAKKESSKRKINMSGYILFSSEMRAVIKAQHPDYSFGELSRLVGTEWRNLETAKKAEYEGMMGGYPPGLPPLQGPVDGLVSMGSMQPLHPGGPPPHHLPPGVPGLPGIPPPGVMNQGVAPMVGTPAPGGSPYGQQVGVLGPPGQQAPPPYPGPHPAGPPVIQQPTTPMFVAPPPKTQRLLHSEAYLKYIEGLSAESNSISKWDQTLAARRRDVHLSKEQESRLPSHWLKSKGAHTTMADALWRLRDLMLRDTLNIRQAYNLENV
UniProt A2BH40: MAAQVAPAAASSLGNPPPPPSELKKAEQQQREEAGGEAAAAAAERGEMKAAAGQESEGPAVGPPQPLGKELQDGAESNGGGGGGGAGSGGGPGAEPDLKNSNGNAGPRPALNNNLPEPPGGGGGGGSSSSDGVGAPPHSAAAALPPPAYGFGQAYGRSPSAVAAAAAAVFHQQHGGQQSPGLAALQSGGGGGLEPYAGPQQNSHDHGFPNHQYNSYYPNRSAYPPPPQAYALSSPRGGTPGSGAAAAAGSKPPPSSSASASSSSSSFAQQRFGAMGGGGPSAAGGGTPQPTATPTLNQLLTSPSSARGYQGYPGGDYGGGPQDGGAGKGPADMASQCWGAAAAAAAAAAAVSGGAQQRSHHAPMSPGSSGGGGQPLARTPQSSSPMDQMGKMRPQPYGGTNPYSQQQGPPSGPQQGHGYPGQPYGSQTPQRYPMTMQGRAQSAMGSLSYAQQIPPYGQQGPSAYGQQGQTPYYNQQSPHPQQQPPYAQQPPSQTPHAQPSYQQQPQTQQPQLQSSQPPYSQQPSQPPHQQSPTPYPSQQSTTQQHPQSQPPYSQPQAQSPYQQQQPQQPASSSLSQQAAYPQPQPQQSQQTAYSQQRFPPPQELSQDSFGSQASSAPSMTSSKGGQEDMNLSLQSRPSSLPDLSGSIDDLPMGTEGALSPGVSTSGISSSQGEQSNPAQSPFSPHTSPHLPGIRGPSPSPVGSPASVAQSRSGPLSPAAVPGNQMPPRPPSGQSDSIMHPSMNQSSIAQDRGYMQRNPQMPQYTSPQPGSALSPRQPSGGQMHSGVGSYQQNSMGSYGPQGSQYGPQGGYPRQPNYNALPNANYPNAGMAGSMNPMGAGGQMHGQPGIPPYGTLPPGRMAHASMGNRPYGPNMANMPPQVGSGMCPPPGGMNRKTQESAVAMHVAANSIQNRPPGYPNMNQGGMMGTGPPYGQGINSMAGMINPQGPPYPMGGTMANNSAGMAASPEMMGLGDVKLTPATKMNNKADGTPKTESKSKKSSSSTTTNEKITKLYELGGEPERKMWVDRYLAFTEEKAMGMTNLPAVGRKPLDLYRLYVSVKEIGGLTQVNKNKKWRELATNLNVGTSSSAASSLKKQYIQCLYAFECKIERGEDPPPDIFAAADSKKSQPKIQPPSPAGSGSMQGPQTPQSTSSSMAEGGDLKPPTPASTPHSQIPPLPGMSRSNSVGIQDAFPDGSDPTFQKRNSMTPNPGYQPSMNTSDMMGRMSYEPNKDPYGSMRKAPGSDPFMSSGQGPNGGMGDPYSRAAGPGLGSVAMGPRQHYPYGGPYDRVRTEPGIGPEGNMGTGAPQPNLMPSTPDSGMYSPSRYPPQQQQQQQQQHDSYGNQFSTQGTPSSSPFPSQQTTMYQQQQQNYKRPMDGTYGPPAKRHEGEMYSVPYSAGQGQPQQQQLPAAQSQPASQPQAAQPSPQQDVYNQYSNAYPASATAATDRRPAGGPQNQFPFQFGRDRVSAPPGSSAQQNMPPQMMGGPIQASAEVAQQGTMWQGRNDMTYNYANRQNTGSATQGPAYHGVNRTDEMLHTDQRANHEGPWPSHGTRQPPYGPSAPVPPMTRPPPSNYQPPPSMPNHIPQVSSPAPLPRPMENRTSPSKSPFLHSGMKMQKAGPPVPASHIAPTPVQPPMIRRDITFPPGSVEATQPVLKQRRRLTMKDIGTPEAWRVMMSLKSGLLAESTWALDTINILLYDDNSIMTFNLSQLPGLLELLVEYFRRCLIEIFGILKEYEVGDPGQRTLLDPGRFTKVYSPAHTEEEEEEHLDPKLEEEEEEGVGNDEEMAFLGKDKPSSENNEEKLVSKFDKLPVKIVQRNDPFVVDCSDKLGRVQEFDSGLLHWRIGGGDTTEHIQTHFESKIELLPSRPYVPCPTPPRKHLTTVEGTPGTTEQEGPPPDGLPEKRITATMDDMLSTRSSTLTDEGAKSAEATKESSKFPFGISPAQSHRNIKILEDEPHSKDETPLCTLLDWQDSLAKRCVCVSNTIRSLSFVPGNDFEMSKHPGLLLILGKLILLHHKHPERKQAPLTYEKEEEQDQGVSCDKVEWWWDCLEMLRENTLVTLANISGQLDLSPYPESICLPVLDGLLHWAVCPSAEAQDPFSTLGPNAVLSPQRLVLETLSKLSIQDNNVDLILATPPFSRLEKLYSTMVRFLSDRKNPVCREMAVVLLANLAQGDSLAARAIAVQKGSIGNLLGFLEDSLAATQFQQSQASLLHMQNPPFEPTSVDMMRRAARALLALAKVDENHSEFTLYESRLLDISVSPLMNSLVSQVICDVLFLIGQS

Results are given in words; binding and its absence hold for the method and conditions named. In cells and extracts the contact can be indirect. Some results given as binding are weak or reduced against the parent protein; the word gives no strength.

Turning to “PBRM1 (PBAF subunit) (from UniProt Q8BSQ9 1-1634)”, the binding entry in assay [1] and in assay [2] was “binds” in each case.
Take “ARID1A (cBAF subunit) (from UniProt A2BH40 1-2283)”: the binding entry in assay [1] and in assay [2] was “binds” in each case.

B1: BRD9 (ncBAF subunit) (protein, UniProt Q3UQU0 1-596)
chain: MGKKHKKHKAEWRSSYEDYTDTPLEKPLKLVLKVGGSEVTELSGSGHDSSYYDDRSDHERERHREKKKKKKKKSEKEKHLDEEERRKRKEEKKRKREKEHCDSEGEADAFDPGKKVEVEPPPDRPVRACRTQPAENESTPIQRLLEHFLRQLQRKDPHGFFAFPVTDAIAPGYSMIIKHPMDFGTMKDKIVANEYKSVTEFKADFKLMCDNAMTYNRPDTVYYKLAKKILHAGFKMMSKAALLGSEDPAAEEPVPEVVPVQVETTKKSKKPSREVISCMFEPEGNACSLTDSTAEEHVLALVEHAADEARDRINRFLPGGKMGYLKKLGDGSLLYSVVNAPEPDADEEETHPVDLSSLSSKLLPGFTTLGFKDERRNKVTFLSSASTALSMQNNSVFGDLKSDEMELLYSAYGDETGVQCALSLQEFVKDAGSYSKKMVDDLLDQITGGDHSRMIFQLKQRRSIPMRPADEMKVGDPLGESGGPVLDFMSMKQYPDVSLDVSMLSSLGKVKKELDHEDSHLNLDETARLLQDLHEAQAERGGSRPSSNLSSLSTASEREHPPPGSPSRLSVGEQPDVAHDPYEFLQSPEPAAPAKN
In the case of B1, the binding entry in assay [1] and in assay [2] was “binds” each time.

The record behind these values is publication PMC12425804.
